According to PubChem BioAssay AID2685 (National Center for Advancing Translational Sciences (NCATS), 2010):
Several values for one entry are separate records, joined by “and”; a condition that tells them apart may be missing. Equal entries are not always repeated. The list shows a part of the results. Shown are side measurements of this screen, not its main read-out; they come without a call. The list favours compounds with an active or inconclusive main result. Potencies come from curve fits of mixed quality, noted in brackets.

Experiment: qHTS Assay for Lipid Storage Modulators in Drosophila S3 Cells;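 as to cell number change: cells counted by Cell Tracker Red CMTPX staining in the red channel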
Settings: BODIPY lipid droplet fluorescence, 18-24 h; for cell number change: measured here: cell count max response, cells fed with added oleic acid
Outline: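 Drosophila S3 cells got compounds at several concentrations plus oleic acid (400 uM solution). Laser-scanning cytometry with 488 nm excitation read lipid droplets at 500-530 nm and cells at 575-640 nm. Percent activity was relative to 20 uM Triacsin C.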

[1] = measured here: cell number channel AC50, cells fed with added oleic acid
[2] = measured here: lipid fluorescence (Fed channel) AC50, cells fed with added oleic acid

Structure (SMILES)	cell number change [%]	AC50 [1]	AC50 [2]
O=C(CN1C(=O)NC2(CCCCC2)C1=O)Nc1cccc(S(=O)(=O)N2CCCC2)c1	-52.5	14.6 µM [falling, partial curve, poor fit]	29.1 µM [falling, single point]
COc1cc(OC)cc(C(=O)NCC(=O)OCc2csc(-c3ccccc3)n2)c1	43	7.31 µM [rising, partial curve]	3.26 µM [rising, single point]
NC(N)=NC(N)=Nc1ccc(SC(F)(F)F)cc1	-0.23	1.64 µM [rising, partial curve, poor fit]	1.03 µM [rising, full curve]
COc1ccc(/C=C2\COc3ccccc3C2=O)cc1OC	-49.2	20.6 µM [falling, partial curve, poor fit]	23.1 µM [falling, partial curve, poor fit]
O=C(CCNC(=O)N1CC(=O)Nc2ccccc21)Nc1ccc(F)c(Cl)c1	-14.4		13 µM [falling, single point]
COC(=O)\C(C(C)=O)=C(/C=C/C=C/N(C)C)N(C)C	-12.1		1.16 µM [falling, full curve, poor fit]
c1ccc2c(c1)[nH]c1c(N3CCOCC3)ncnc12	46.6	18.4 µM [rising, single point]	
CC(=O)OCC(=O)Nc1ccc(SC(F)F)cc1	71.6		29.1 µM [rising, single point]
CNC(=O)C1=C(C)NC(=S)NC1c1cccs1 (stereo not given)	-4.52		
Cc1sc2ncnc(N3CCC(C(=O)Nc4nnc(SCc5ccccc5F)s4)CC3)c2c1C	68.5	3.26 µM [rising, full curve]	
COC(=O)C1=C(C)NC(C)=C(C(=O)OC)C1c1ccc(N(C)C)cc1	28.9		
CCOCCCNC(=O)CN1C(=O)COc2ccc(S(=O)(=O)N3CCC(C)CC3)cc21	18.6		
CN1CCN(C(=O)C2CC(=O)N(c3ccc(F)c(Cl)c3)C2)CC1 (stereo not given)	12		0.651 µM [falling, full curve, poor fit]
N#CSCC(=O)c1cccc2ccccc12	-28.4		29.1 µM [falling, single point]
CCc1nnc(NC(=O)c2ccc(S(=O)(=O)N3CCCc4ccccc43)cc2)o1	0.884		4.61 µM [falling, partial curve]
CCOC(=O)N1CCN(CC(=O)Nc2sccc2C#N)CC1	-18.1		
COc1cc2c(c(OC)c1OC)-c1c(cc3c(c1O)OCO3)C[C@@H](C)[C@@H](C)C2	-38	25.9 µM [falling, single point]	16.4 µM [falling, partial curve]
Cc1cccc(C(=O)O)c1NC(=O)Cc1cccc2ccccc12	8.84		
COc1cccc(-c2n[nH]c(=S)n2Cc2ccco2)c1	6.24		0.461 µM [rising, full curve, poor fit]
COc1ccc(S(=O)(=O)N(C)CC(=O)NCc2ccccn2)cc1	9.13		6.51 µM [falling, single point]

An excerpt from above in order of heavy-atom count, smallest number first.
Structure (SMILES)	cell number change [%]	AC50 [1]	AC50 [2]
CCOC(=O)N1CCN(CC(=O)Nc2sccc2C#N)CC1	-18.1		
CN1CCN(C(=O)C2CC(=O)N(c3ccc(F)c(Cl)c3)C2)CC1 (stereo not given)	12		0.651 µM [falling, full curve, poor fit]
COc1cc(OC)cc(C(=O)NCC(=O)OCc2csc(-c3ccccc3)n2)c1	43	7.31 µM [rising, partial curve]	3.26 µM [rising, single point]

Further structures.

Structure (SMILES)	cell number change [%]	AC50 [1]	AC50 [2]
O=C(NCC1COc2ccccc2O1)c1ccc(Cl)c(S(=O)(=O)N2CCOCC2)c1 (stereo not given)	10		
CC(C)C[C@H](NC(=O)C1CC(=O)N(c2ccc(F)cc2)C1)C(=O)N1CCCCC1 (stereo not given in full)	24.8		11.6 µM [rising, partial curve]
CC(C)(O)C#Cc1ccc(C(=O)NCc2ccccc2F)cc1		2.06 µM [rising, partial curve]	1.84 µM [rising, partial curve]
Cc1ccc(C(=O)NCC(=O)OCC(=O)N(CC(C)C)c2c(N)n(Cc3ccccc3)c(=O)[nH]c2=O)cc1	6.36		1.3 µM [falling, full curve]
CCCCn1c(O)c(/C=C2\C=NN=C2c2ccccc2)sc1=S	-17.8		
Cn1c(=O)c2c(nc(Oc3ccccc3)n2C)n(C)c1=O	22.7	0.164 µM [falling, full curve, poor fit]	6.51 µM [falling, single point] and 130 nM [falling, full curve, poor fit]
OC(CN1CCOCC1)CN1CCOCC1	7.08		
CCC(=O)Nc1ccc(C(=O)N/N=C/c2ccccc2[N+](=O)[O-])cc1	-17		
Cc1ncc([N+](=O)[O-])n1CC(=O)N/N=C/c1ccc(F)cc1	-11.2		1.84 µM [falling, partial curve]
CCOC(=O)CC(NC(=O)c1ccccc1F)c1ccc(C)cc1 (stereo not given)	18.6		
COC(=O)c1c[nH]n2c(=O)c(Cc3ccc(F)cc3Cl)c(C)nc12	-31.8	4.11 µM [falling, partial curve]	16.4 µM [falling, partial curve]
CSCCC(NS(=O)(=O)c1ccc2ccccc2c1)C(=O)O (stereo not given)	14.4		5.8 µM [falling, single point]
COc1ccc(Cl)cc1C(=O)Nc1ccc(N(C)C(C)=O)cc1	-21.9	1.84 µM [rising, partial curve, poor fit]	29.1 µM [rising, single point]
COc1nc(N(C)C)nc(N(C)c2cc(Cl)cc(Cl)c2)n1	15.2		29.1 µM [rising, single point]
O=C1C(NS(=O)(=O)c2cccs2)=C(N2CCN(c3cccc(C(F)(F)F)c3)CC2)C(=O)c2ccccc21	-86.1	8.2 µM [falling, partial curve]	29.1 µM [falling, single point]
CN(C)C(=O)CCC(=O)N1CCCC(C(=O)c2ccc(C(F)(F)F)cc2)C1 (stereo not given)	4.12		
COc1cc2c(c(OC)c1)C(c1ccncc1)CC(=O)N2 (stereo not given)		6.51 µM [rising, single point]	4.61 µM [falling, partial curve, poor fit]
COc1ccc(C(F)(F)F)cc1N/C=C\c1nnnn1-c1ccc(C)cc1	6.94		
COc1ccc(OCc2nn[nH]n2)cc1	26.7		29.1 µM [rising, single point]
